# Results from the supplement of paper PMC8728848.
# The list shows a part of the results.
# B1: a L Fucosidase (Thermotoga maritima) (protein)
# chain: MASMKPRYKPDWESLREHTVPKWFDKAKFGIFIHWGIYSVPGWATPTGELGKVPMDAWFFQNPYAEWYENSLRIKESPTWEYHVKTYGENFEYEKFADLFTAEKWDPQEWADLFKKAGAKYVIPTTKHHDGFCLWGTKYTDFNSVKRGPKRDLVGDLAKAVREAGLRFGVYYSGGLDWRFTTEPIRYPEDLSYIRPNTYEYADYAYKQVMELVDLYLPDVLWNNMGWPEKGKEDLKYLFAYYYNKHPEGSVNDRWGVPHWDFKTAEYHVNYPGDLPGYKWEFTRGIGLSFGYNRNEGPEHMLSVEQLVYTLVDVVSKGGNLLLNVGPKGDGTIPDLQKERLLGLGEWLRKYGDAIYGTSVWERCCAKTEDGTEIRFTRKCNRIFVIFLGIPTGEKIVIEDLNLSAGTVRHFLTGERLSFKNVGKNLEITVPKKLLETDSITLVLEAVEE
# Experiments:
# Test in all cases: glycan array binding signal (z-score within array); higher = stronger binding
# Conditions in all cases: glycan notation: IUPAC condensed, linker removed; mutation: D224N
# [1] = target: Fuc(a1-2)[GalNAc(b1-3)]Gal
# Outline: (§1)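 The Consortium for Functional Glycomics database supplied 3228 glycan arrays, of which those lacking an available protein sequence were dropped. The binding signal, a within-array Z-score, was averaged across arrays of the same protein sequence and across linkers. Negative scores can be read as non-binding.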
# [2] = target: Fuc(a1-3)GlcNAc
# Outline: as §1
# [3] = target: Fuc(a1-3)[Gal(b1-4)]Glc6S
# Outline: as §1
# [4] = target: Fuc(a1-3)[Gal(b1-4)]GlcNAc
# Outline: as §1
# [5] = target: Fuc(a1-3)[Gal(b1-4)]GlcNAc(b1-2)Man
# Outline: as §1
# [6] = target: Fuc(a1-3)[Gal(b1-4)]GlcNAc(b1-2)Man(a1-3)[Fuc(a1-3)[Gal(b1-4)]GlcNAc(b1-2)Man(a1-6)]Man(b1-4)GlcNAc(b1-4)GlcNAc
# Outline: as §1
# [7] = target: Fuc(a1-3)[Gal(b1-4)]GlcNAc(b1-2)Man(a1-3)[Fuc(a1-3)[Gal(b1-4)]GlcNAc(b1-2)Man(a1-6)]Man(b1-4)GlcNAc(b1-4)[Fuc(a1-6)]GlcNAc
# Outline: as §1
# [8] = target: Fuc(a1-3)[Gal(b1-4)]GlcNAc(b1-3)Gal(b1-3)[Fuc(a1-4)]GlcNAc
# Outline: as §1
# [9] = target: Fuc(a1-3)[Gal(b1-4)]GlcNAc(b1-3)Gal(b1-4)[Fuc(a1-3)]GlcNAc
# Outline: as §1
# [10] = target: Fuc(a1-3)[Gal(b1-4)]GlcNAc(b1-3)Gal(b1-4)[Fuc(a1-3)]GlcNAc(b1-3)Gal(b1-4)[Fuc(a1-3)]GlcNAc
# Outline: as §1
# [11] = target: Fuc(a1-3)[Gal(b1-4)]GlcNAc(b1-3)GalNAc
# Outline: as §1
# [12] = target: Fuc(a1-3)[Gal(b1-4)]GlcNAc(b1-6)GalNAc
# Outline: as §1
# [13] = target: Fuc(a1-3)[Gal(b1-4)]GlcNAc(b1-6)[Gal(b1-3)GlcNAc(b1-3)]Gal(b1-4)Glc
# Outline: as §1
# [14] = target: Fuc(a1-3)[Gal(b1-4)]GlcNAc6S
# Outline: as §1
# [15] = target: Fuc(a1-3)[Gal3S(b1-4)]Glc
# Outline: as §1
# [16] = target: Fuc(a1-3)[Gal3S(b1-4)]GlcNAc
# Outline: as §1
# [17] = target: Fuc(a1-3)[Gal3S(b1-4)]GlcNAc6S
# Outline: as §1
# [18] = target: Fuc(a1-3)[GalNAc(b1-4)]GlcNAc
# Outline: as §1
# [19] = target: Fuc(a1-3)[GalNAc(b1-4)]GlcNAc6S
# Outline: as §1
# [20] = target: Fuc(a1-4)GlcNAc
# Outline: as §1
# [21] = target: Fuc(b1-3)GlcNAc
# Outline: as §1
# [22] = target: Gal(a1-2)Gal
# Outline: as §1
# [23] = target: Gal(a1-3)Gal
# Outline: as §1
# [24] = target: Gal(a1-3)Gal(b1-3)GlcNAc
# Outline: as §1
# [25] = target: Gal(a1-3)Gal(b1-3)GlcNAc(b1-2)Man
# Outline: as §1
# [26] = target: Gal(a1-3)Gal(b1-3)GlcNAc(b1-2)Man(a1-3)[Gal(a1-3)Gal(b1-3)GlcNAc(b1-2)Man(a1-6)]Man(b1-4)GlcNAc(b1-4)GlcNAc
# Outline: as §1
# [27] = target: Gal(a1-3)Gal(b1-3)GlcNAc(b1-3)GalNAc
# Outline: as §1
# [28] = target: Gal(a1-3)Gal(b1-3)GlcNAc(b1-6)GalNAc
# Outline: as §1
# [29] = target: Gal(a1-3)Gal(b1-3)[Fuc(a1-4)]GlcNAc(b1-2)Man(a1-3)[Gal(a1-3)Gal(b1-3)[Fuc(a1-4)]GlcNAc(b1-2)Man(a1-6)]Man(b1-4)GlcNAc(b1-4)GlcNAc
# Outline: as §1
# [30] = target: Gal(a1-3)Gal(b1-4)Glc
# Outline: as §1
# [31] = target: Gal(a1-3)Gal(b1-4)GlcNAc
# Outline: as §1
# [32] = target: Gal(a1-3)Gal(b1-4)GlcNAc(b1-2)Man
# Outline: as §1
# [33] = target: Gal(a1-3)Gal(b1-4)GlcNAc(b1-2)Man(a1-3)[Gal(a1-3)Gal(b1-4)GlcNAc(b1-2)Man(a1-6)]Man(b1-4)GlcNAc(b1-4)GlcNAc
# Outline: as §1
# [34] = target: Gal(a1-3)Gal(b1-4)GlcNAc(b1-3)GalNAc
# Outline: as §1
# [35] = target: Gal(a1-3)Gal(b1-4)GlcNAc(b1-6)GalNAc
# Outline: as §1
# [36] = target: Gal(a1-3)Gal(b1-4)[Fuc(a1-3)]GlcNAc
# Outline: as §1
# [37] = target: Gal(a1-3)Gal(b1-4)[Fuc(a1-3)]GlcNAc(b1-2)Man(a1-3)[Gal(a1-3)Gal(b1-4)[Fuc(a1-3)]GlcNAc(b1-2)Man(a1-6)]Man(b1-4)GlcNAc(b1-4)GlcNAc
# Outline: as §1
# [38] = target: Gal(a1-3)GalNAc
# Outline: as §1
# [39] = target: Gal(a1-3)[Gal(a1-4)]Gal(b1-4)GlcNAc
# Outline: as §1
# [40] = target: Gal(a1-4)Gal(b1-3)GlcNAc(b1-2)Man(a1-3)[Gal(a1-4)Gal(b1-3)GlcNAc(b1-2)Man(a1-6)]Man(b1-4)GlcNAc(b1-4)GlcNAc
# Outline: as §1
# [41] = target: Gal(a1-4)Gal(b1-4)Glc
# Outline: as §1
# [42] = target: Gal(a1-4)Gal(b1-4)GlcNAc
# Outline: as §1
# [43] = target: Gal(a1-4)Gal(b1-4)GlcNAc(b1-2)Man(a1-3)[Gal(a1-4)Gal(b1-4)GlcNAc(b1-2)Man(a1-6)]Man(b1-4)GlcNAc(b1-4)GlcNAc
# Outline: as §1
# [44] = target: Gal(a1-4)Gal(b1-4)GlcNAc(b1-3)Gal(b1-4)Glc
# Outline: as §1
# [45] = target: Gal(a1-4)GlcNAc
# Outline: as §1
binder,measurement,setting,value
B1,glycan array binding signal (z-score),[1],-0.14
same,glycan array binding signal (z-score),[2],-0.863
same,glycan array binding signal (z-score),[3],2.33
same,glycan array binding signal (z-score),[4],-0.745
same,glycan array binding signal (z-score),[5],-0.175
same,glycan array binding signal (z-score),[6],-0.636
same,glycan array binding signal (z-score),[7],1.05
same,glycan array binding signal (z-score),[8],-0.649
same,glycan array binding signal (z-score),[9],0.138
same,glycan array binding signal (z-score),[10],0.062
same,glycan array binding signal (z-score),[11],-0.159
same,glycan array binding signal (z-score),[12],-0.2
same,glycan array binding signal (z-score),[13],0.071
same,glycan array binding signal (z-score),[14],-0.263
same,glycan array binding signal (z-score),[15],-0.258
same,glycan array binding signal (z-score),[16],1.11
same,glycan array binding signal (z-score),[17],0.56
same,glycan array binding signal (z-score),[18],-0.34
same,glycan array binding signal (z-score),[19],0.757
same,glycan array binding signal (z-score),[20],0.308
same,glycan array binding signal (z-score),[21],-0.708
same,glycan array binding signal (z-score),[22],-0.446
same,glycan array binding signal (z-score),[23],-0.173
same,glycan array binding signal (z-score),[24],-0.912
same,glycan array binding signal (z-score),[25],-0.845
same,glycan array binding signal (z-score),[26],0.731
same,glycan array binding signal (z-score),[27],-0.25
same,glycan array binding signal (z-score),[28],-0.205
same,glycan array binding signal (z-score),[29],0.374
same,glycan array binding signal (z-score),[30],-0.44
same,glycan array binding signal (z-score),[31],-0.449
same,glycan array binding signal (z-score),[32],-0.502
same,glycan array binding signal (z-score),[33],0.023
same,glycan array binding signal (z-score),[34],-0.286
same,glycan array binding signal (z-score),[35],-0.814
same,glycan array binding signal (z-score),[36],-0.521
same,glycan array binding signal (z-score),[37],-0.164
same,glycan array binding signal (z-score),[38],-0.41
same,glycan array binding signal (z-score),[39],-0.245
same,glycan array binding signal (z-score),[40],0.497
same,glycan array binding signal (z-score),[41],0.591
same,glycan array binding signal (z-score),[42],0.214
same,glycan array binding signal (z-score),[43],1.09
same,glycan array binding signal (z-score),[44],-1.22
same,glycan array binding signal (z-score),[45],0.12

# Some of the entries so far, as tab-separated lines.
binder	measurement	setting	value
B1	glycan array binding signal (z-score)	[16]	1.11
same	glycan array binding signal (z-score)	[17]	0.56
